We go through two molecules from patent US20090155251A1 (published 2009).

By UniProt entry, the sequences of proteins in these tests, tags left out. Where a name states a change or a piece, a line headed by the entry shows the natural chain unless it says otherwise. Residues count along the entry.
UniProt P52799: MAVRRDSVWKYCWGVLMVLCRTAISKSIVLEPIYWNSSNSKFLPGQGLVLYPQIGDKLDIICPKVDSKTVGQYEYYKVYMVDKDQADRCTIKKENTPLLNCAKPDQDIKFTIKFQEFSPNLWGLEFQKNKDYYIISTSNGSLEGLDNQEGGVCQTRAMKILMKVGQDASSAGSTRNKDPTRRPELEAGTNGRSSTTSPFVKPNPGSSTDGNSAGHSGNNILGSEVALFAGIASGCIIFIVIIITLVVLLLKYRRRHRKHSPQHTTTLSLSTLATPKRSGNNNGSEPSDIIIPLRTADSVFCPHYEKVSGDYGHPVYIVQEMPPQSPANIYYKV
ephrin B2 on tumor cells of human Kaposi's sarcoma biopsy sections: residues 28-333 of P52799

These are yes or no findings as the source states them, for the method shown. Some entries that bind do so weakly or less than the wild type. Where a sequence is shown, tags or fusion partners need not be part of it.

In experiment [1] the target is T1, B4EC-AP reagent (protein fusion of EphB4 ectodomain with placental alkaline phosphatase) (UniProt P54760).
T1 sequence (looked up): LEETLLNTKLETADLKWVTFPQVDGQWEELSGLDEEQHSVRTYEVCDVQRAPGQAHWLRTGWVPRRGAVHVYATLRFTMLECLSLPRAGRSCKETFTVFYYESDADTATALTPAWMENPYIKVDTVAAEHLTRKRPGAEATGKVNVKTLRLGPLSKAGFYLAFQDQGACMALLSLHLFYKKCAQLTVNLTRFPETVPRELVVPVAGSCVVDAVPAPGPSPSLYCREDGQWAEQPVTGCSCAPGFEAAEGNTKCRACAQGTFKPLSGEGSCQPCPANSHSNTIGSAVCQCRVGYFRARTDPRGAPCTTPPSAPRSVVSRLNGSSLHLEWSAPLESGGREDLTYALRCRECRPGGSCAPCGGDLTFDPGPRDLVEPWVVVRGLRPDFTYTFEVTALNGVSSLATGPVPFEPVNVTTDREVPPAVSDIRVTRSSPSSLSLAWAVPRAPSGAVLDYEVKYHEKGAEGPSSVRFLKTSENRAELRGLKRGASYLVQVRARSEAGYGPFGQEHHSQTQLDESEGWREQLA
Put plainly: biochemical assays: Protein A-agarose and nitrocellulose binding assay as for B4EC-FC (FIG. 8); AP probe not named.

For experiment [2], the target named is ephrin B2 on tumor cells of human Kaposi's sarcoma biopsy sections (human) (UniProt P52799). Put plainly: AP fusion staining of KS biopsy section.

On to “B2EC-FC (Ephrin B2 extracellular domain fused to human IgG1 Fc) (from UniProt P52799 28-229) (Fc fusion)”, for which the binding result in experiment [1] is given as “binds”.

B1: B4EC-AP reagent (protein fusion of EphB4 ectodomain with placental alkaline phosphatase) (receptor, UniProt P54760 16-539, looked up, not shown: large carriers)
chain: LEETLLNTKLETADLKWVTFPQVDGQWEELSGLDEEQHSVRTYEVCDVQRAPGQAHWLRTGWVPRRGAVHVYATLRFTMLECLSLPRAGRSCKETFTVFYYESDADTATALTPAWMENPYIKVDTVAAEHLTRKRPGAEATGKVNVKTLRLGPLSKAGFYLAFQDQGACMALLSLHLFYKKCAQLTVNLTRFPETVPRELVVPVAGSCVVDAVPAPGPSPSLYCREDGQWAEQPVTGCSCAPGFEAAEGNTKCRACAQGTFKPLSGEGSCQPCPANSHSNTIGSAVCQCRVGYFRARTDPRGAPCTTPPSAPRSVVSRLNGSSLHLEWSAPLESGGREDLTYALRCRECRPGGSCAPCGGDLTFDPGPRDLVEPWVVVRGLRPDFTYTFEVTALNGVSSLATGPVPFEPVNVTTDREVPPAVSDIRVTRSSPSSLSLAWAVPRAPSGAVLDYEVKYHEKGAEGPSSVRFLKTSENRAELRGLKRGASYLVQVRARSEAGYGPFGQEHHSQTQLDESEGWREQLA
In the case of B1, in experiment [2], the binding result is “binds”.
